# Test results reported in the supplement of paper PMC4604168 (melanoma cell lines).
# This is one part of the list. Many values rest on one well or one pass, so single values are uncertain.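 Imaging used 1,536-well plates; nuclei positive for cleaved PARP by antibody were divided by total DNA-stained nuclei to yield the apoptosis fraction. Doses for screening kept most cells viable, and cell lines differ markedly in resting and induced cleaved-PARP levels.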
# Experiments:
# Assay in all cases: cleaved PARP positive nuclei fraction relative to DMSO control; melanoma cells; higher = more apoptosis
# Conditions in all cases: library dose: low library concentration; 72 h
# 501Mel = tested on: 501Mel
# A101D = tested on: A101D
# A2058 = tested on: A2058
# A375 = tested on: A375
# C32 = tested on: C32
# CBRC008 = tested on: CBRC008 (line from a melanoma biopsy)
# CBRC014 = tested on: CBRC014 (line from a melanoma biopsy)
# CBRC016 = tested on: CBRC016 (line from a melanoma biopsy)
# CBRC017 = tested on: CBRC017 (line from a melanoma biopsy)
# CBRC034 = tested on: CBRC034 (line from a melanoma biopsy)
# COLO792 = tested on: COLO792
# COLO800 = tested on: COLO800
# COLO829 = tested on: COLO829
# G361 = tested on: G361
# IPC-298 = tested on: IPC-298
# IST-MEL1 = tested on: IST-MEL1
# LB2518-MEL = tested on: LB2518-MEL
# LOXIMVI = tested on: LOXIMVI
# MEL-HO = tested on: MEL-HO
SMILES,cleaved PARP positive nuclei fraction (501Mel) [%],cleaved PARP positive nuclei fraction (A101D) [%],cleaved PARP positive nuclei fraction (A2058) [%],cleaved PARP positive nuclei fraction (A375) [%],cleaved PARP positive nuclei fraction (C32) [%],cleaved PARP positive nuclei fraction (CBRC008) [%],cleaved PARP positive nuclei fraction (CBRC014) [%],cleaved PARP positive nuclei fraction (CBRC016) [%],cleaved PARP positive nuclei fraction (CBRC017) [%],cleaved PARP positive nuclei fraction (CBRC034) [%],cleaved PARP positive nuclei fraction (COLO792) [%],cleaved PARP positive nuclei fraction (COLO800) [%],cleaved PARP positive nuclei fraction (COLO829) [%],cleaved PARP positive nuclei fraction (G361) [%],cleaved PARP positive nuclei fraction (IPC-298) [%],cleaved PARP positive nuclei fraction (IST-MEL1) [%],cleaved PARP positive nuclei fraction (LB2518-MEL) [%],cleaved PARP positive nuclei fraction (LOXIMVI) [%],cleaved PARP positive nuclei fraction (MEL-HO) [%]
"O=c1[nH]nc(Sc2ncc([N+](=O)[O-])s2)n1-c1ccc2c(c1)OCCO2 + Cc1cc(Nc2cc(N3CCN(C)CC3)nc(/C=C/c3ccccc3)n2)n[nH]1 [ENMD2076] (first compound 0.2 µM, partner dose 0.04 µM)",47.3,48.1,53.2,108,206,32.3,96.3,179,102,62.8,92.9,109,86.6,39.9,27.3,144,182,78.3,57.6
"O=c1[nH]nc(Sc2ncc([N+](=O)[O-])s2)n1-c1ccc2c(c1)OCCO2 + C=C(c1ccc(C(=O)O)cc1)c1cc2c(cc1C)C(C)(C)CCC2(C)C [Bexarotene] (first compound 0.2 µM, partner dose 2 µM)",48.3,118,140,45.6,77.6,87.8,126,109,237,49.2,63.5,137,116,90.9,166,123,110,83,147
"O=c1[nH]nc(Sc2ncc([N+](=O)[O-])s2)n1-c1ccc2c(c1)OCCO2 + NC1(c2ccc(-c3nc4ccn5c(=O)[nH]nc5c4cc3-c3ccccc3)cc2)CCC1 [MK2206] (first compound 0.2 µM, partner dose 0.4 µM)",108,151,83.9,209,152,45.8,98,101,92.3,36.2,191,54.4,49.4,169,87.7,163,100,190,65.5
"O=C(/C=C/c1cccnc1)NCCCCC1CCN(C(=O)c2ccccc2)CC1 + Cc1ccc(Nc2nccc(N(C)c3ccc4c(C)n(C)nc4c3)n2)cc1S(N)(=O)=O [Pazopanib] (first compound 0.01 µM, partner dose 0.4 µM)",37.1,25.5,122,140,76.2,1960,128,1120,615,1380,507,171,158,8730,243,208,778,156,810
"CCCCCCCCCCCCCCCCCCOP(=O)([O-])OC1CC[N+](C)(C)CC1 [Perifosine] + Cc1nc(Nc2ncc(C(=O)Nc3c(C)cccc3Cl)s2)cc(N2CCN(CCO)CC2)n1 [dasatanib] (first compound 0.4 µM, partner dose 0.004 µM)",178,154,141,357,78.8,87.9,77.9,87.8,69,118,187,116,134,70.4,41.1,86.1,47.8,133,55.2
"Cc1cc(Nc2cc(N3CCN(C)CC3)nc(Sc3ccc(NC(=O)C4CC4)cc3)n2)n[nH]1 [Tozasertib] + C=CCNC1=C2C[C@@H](C)C[C@H](OC)[C@H](O)[C@@H](C)/C=C(\C)[C@H](OC(N)=O)[C@@H](OC)/C=C\C=C(/C)C(=O)NC(=CC1=O)C2=O [Tanespimycin] (first compound 0.006 µM, partner dose 0.002 µM)",78.8,75,73.1,143,189,37.4,112,88,106,57.9,80.7,89.9,71.8,125,89.2,252,117,163,48.7
"CCCCCCCCCCCCCCCCCCOP(=O)([O-])OC1CC[N+](C)(C)CC1 [Perifosine] + O=c1[nH]nc(Sc2ncc([N+](=O)[O-])s2)n1-c1ccc2c(c1)OCCO2 [BI78D3] (first compound 0.4 µM, partner dose 0.2 µM)",59.2,31.5,37.2,164,143,88.6,110,67.7,93.6,62.4,85.1,82.7,76.9,82.7,42.3,65.2,153,63.4,209
"O=C(Nc1cc(C(F)(F)F)cc(C(F)(F)F)c1)c1cc(Cl)ccc1O + Clc1ccc(Nc2nnc(Cc3ccncc3)c3ccccc23)cc1 [vatalanib] (first compound 0.016 µM, partner dose 2 µM)",105,103,88.6,81.5,76.1,142,109,96.7,121,138,57.9,126,97,130,89.4,188,95,57.5,106
"COc1cc([C@@H]2c3cc4c(cc3[C@@H](O[C@@H]3O[C@@H]5CO[C@@H](C)O[C@H]5[C@H](O)[C@H]3O)[C@H]3COC(=O)[C@H]23)OCO4)cc(OC)c1O [etoposide] + C=C(c1ccc(C(=O)O)cc1)c1cc2c(cc1C)C(C)(C)CCC2(C)C [Bexarotene] (first compound 0.02 µM, partner dose 2 µM)",188,82.5,163,26,76.4,103,102,146,147,66.8,211,56.9,115,132,91.2,190,51.6,35.4,83.3
"COc1cc([C@@H]2c3cc4c(cc3[C@@H](O[C@@H]3O[C@@H]5CO[C@@H](C)O[C@H]5[C@H](O)[C@H]3O)[C@H]3COC(=O)[C@H]23)OCO4)cc(OC)c1O [etoposide] + Cc1ccc(Nc2nccc(N(C)c3ccc4c(C)n(C)nc4c3)n2)cc1S(N)(=O)=O [Pazopanib] (first compound 0.02 µM, partner dose 0.4 µM)",161,130,169,134,68.7,106,117,79.2,142,32.7,93.3,134,71.4,155,34.6,64.3,24.9,61.9,80.7
"O=C(/C=C/c1cccnc1)NCCCCC1CCN(C(=O)c2ccccc2)CC1 + Cn1nnc2c(C(N)=O)ncn2c1=O [temozolomide] (first compound 0.01 µM, partner dose 2 µM)",100,58.3,57.9,173,84.7,3180,91.5,568,667,868,360,454,145,4410,214,99.8,101,144,183
"CCCCCCCCCCCCCCCCCCOP(=O)([O-])OC1CC[N+](C)(C)CC1 [Perifosine] + C=CCNC1=C2C[C@@H](C)C[C@H](OC)[C@H](O)[C@@H](C)/C=C(\C)[C@H](OC(N)=O)[C@@H](OC)/C=C\C=C(/C)C(=O)NC(=CC1=O)C2=O [Tanespimycin] (first compound 0.4 µM, partner dose 0.002 µM)",33.1,74.1,64,223,105,27.6,102,139,88.2,196,97.7,85.4,175,111,90.2,203,91.8,130,45.6
"N#CC[C@H](C1CCCC1)n1cc(-c2ncnc3[nH]ccc23)cn1 [ruxolitinib] + Cc1cc(Nc2cc(N3CCN(C)CC3)nc(/C=C/c3ccccc3)n2)n[nH]1 [ENMD2076] (first compound 1 µM, partner dose 0.04 µM)",100,134,138,37.8,81.1,127,95.8,58,81.3,117,139,75.6,90,112,83.7,157,54.4,103,101
"O=c1[nH]nc(Sc2ncc([N+](=O)[O-])s2)n1-c1ccc2c(c1)OCCO2 + Cn1c(Nc2ccc(C(F)(F)F)cc2)nc2cc(Oc3ccnc(-c4ncc(C(F)(F)F)[nH]4)c3)ccc21 [CHIR265] (first compound 0.2 µM, partner dose 0.08 µM)",83.7,170,79.8,144,88.1,93.9,110,30.4,114,168,200,110,116,173,173,66,156,89.8,143
"COc1cc([C@@H]2c3cc4c(cc3[C@@H](O[C@@H]3O[C@@H]5CO[C@@H](C)O[C@H]5[C@H](O)[C@H]3O)[C@H]3COC(=O)[C@H]23)OCO4)cc(OC)c1O [etoposide] + NC(=O)c1ccc(N(C(N)=O)c2c(F)cccc2F)nc1-c1ccc(F)cc1F [VX702] (first compound 0.02 µM, partner dose 0.4 µM)",129,41.3,124,101,72.9,40.5,91.2,109,82.6,49,95.1,119,92.5,112,45.6,61.3,104,99.2,69.1
"O=c1[nH]nc(Sc2ncc([N+](=O)[O-])s2)n1-c1ccc2c(c1)OCCO2 + Clc1ccc(Nc2nnc(Cc3ccncc3)c3ccccc23)cc1 [vatalanib] (first compound 0.2 µM, partner dose 2 µM)",241,45.5,282,97.2,253,42.1,106,118,301,61.9,106,82.8,61.6,103,97.3,63.2,249,189,119

# Part of the list above, reformatted.
SMILES	cleaved PARP positive nuclei fraction (501Mel) [%]	cleaved PARP positive nuclei fraction (A101D) [%]	cleaved PARP positive nuclei fraction (A2058) [%]	cleaved PARP positive nuclei fraction (A375) [%]	cleaved PARP positive nuclei fraction (C32) [%]	cleaved PARP positive nuclei fraction (CBRC008) [%]	cleaved PARP positive nuclei fraction (CBRC014) [%]	cleaved PARP positive nuclei fraction (CBRC016) [%]	cleaved PARP positive nuclei fraction (CBRC017) [%]	cleaved PARP positive nuclei fraction (CBRC034) [%]	cleaved PARP positive nuclei fraction (COLO792) [%]	cleaved PARP positive nuclei fraction (COLO800) [%]	cleaved PARP positive nuclei fraction (COLO829) [%]	cleaved PARP positive nuclei fraction (G361) [%]	cleaved PARP positive nuclei fraction (IPC-298) [%]	cleaved PARP positive nuclei fraction (IST-MEL1) [%]	cleaved PARP positive nuclei fraction (LB2518-MEL) [%]	cleaved PARP positive nuclei fraction (LOXIMVI) [%]	cleaved PARP positive nuclei fraction (MEL-HO) [%]
CCCCCCCCCCCCCCCCCCOP(=O)([O-])OC1CC[N+](C)(C)CC1 [Perifosine] + O=c1[nH]nc(Sc2ncc([N+](=O)[O-])s2)n1-c1ccc2c(c1)OCCO2 [BI78D3] (first compound 0.4 µM, partner dose 0.2 µM)	59.2	31.5	37.2	164	143	88.6	110	67.7	93.6	62.4	85.1	82.7	76.9	82.7	42.3	65.2	153	63.4	209
O=C(Nc1cc(C(F)(F)F)cc(C(F)(F)F)c1)c1cc(Cl)ccc1O + Clc1ccc(Nc2nnc(Cc3ccncc3)c3ccccc23)cc1 [vatalanib] (first compound 0.016 µM, partner dose 2 µM)	105	103	88.6	81.5	76.1	142	109	96.7	121	138	57.9	126	97	130	89.4	188	95	57.5	106
